# Test results published in patent publication US20240043439A1, “COMPOUNDS AS C5AR INHIBITORS” (Kira Pharmaceuticals (Suzhou) Ltd., priority 2020, published 2024).
# By UniProt entry, the sequences of proteins in these tests, tags left out.
# UniProt P21730, whole entry: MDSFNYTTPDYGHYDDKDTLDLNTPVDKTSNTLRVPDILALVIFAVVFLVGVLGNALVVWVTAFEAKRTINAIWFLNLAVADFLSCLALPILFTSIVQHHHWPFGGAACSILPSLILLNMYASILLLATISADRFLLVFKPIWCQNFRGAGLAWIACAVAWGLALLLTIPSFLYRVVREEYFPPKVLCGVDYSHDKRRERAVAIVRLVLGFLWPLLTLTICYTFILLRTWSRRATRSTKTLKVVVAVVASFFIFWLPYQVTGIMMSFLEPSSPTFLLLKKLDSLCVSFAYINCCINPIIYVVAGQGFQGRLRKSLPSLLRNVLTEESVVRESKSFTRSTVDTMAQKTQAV
# The source holds more than one record for some entries. The other results are left out here. An entry can have further records. Values given together differ, and nothing given here explains why; they may come from other doses, times, organisms or constructs than stated.
# Molecular target: human C5a receptor (C5aR) (Homo sapiens (Human), UniProt P21730)
# Test: Inhibition of C5a-C5aR binding (biotinylated human C5a, U937/C5aR cells, FACS)
smiles,measurement,value
Cc1ccc(NC(=O)[C@H]2C[C@H]3CN(C)C[C@H]3N(C(=O)c3c(C)cccc3F)[C@H]2c2ccc(N(C)C3CCCC3)cc2)cc1C(F)(F)F (relative stereo),IC50,50 nM to 500 nM and 500 nM to 2 µM
